For six molecules, binding results are on record in patent US20260008852A1.

Chains of the proteins cited; added tags and fusions are not shown. Residues count along the entry.
UniProt Q8VE98, residues 29-244: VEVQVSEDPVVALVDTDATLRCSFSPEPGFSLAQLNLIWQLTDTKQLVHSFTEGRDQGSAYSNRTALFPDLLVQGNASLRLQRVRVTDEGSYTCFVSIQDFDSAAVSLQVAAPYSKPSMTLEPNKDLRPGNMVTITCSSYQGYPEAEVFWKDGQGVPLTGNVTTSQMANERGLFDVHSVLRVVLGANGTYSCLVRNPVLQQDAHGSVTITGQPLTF
UniProt Q5ZPR3, residues 29-534: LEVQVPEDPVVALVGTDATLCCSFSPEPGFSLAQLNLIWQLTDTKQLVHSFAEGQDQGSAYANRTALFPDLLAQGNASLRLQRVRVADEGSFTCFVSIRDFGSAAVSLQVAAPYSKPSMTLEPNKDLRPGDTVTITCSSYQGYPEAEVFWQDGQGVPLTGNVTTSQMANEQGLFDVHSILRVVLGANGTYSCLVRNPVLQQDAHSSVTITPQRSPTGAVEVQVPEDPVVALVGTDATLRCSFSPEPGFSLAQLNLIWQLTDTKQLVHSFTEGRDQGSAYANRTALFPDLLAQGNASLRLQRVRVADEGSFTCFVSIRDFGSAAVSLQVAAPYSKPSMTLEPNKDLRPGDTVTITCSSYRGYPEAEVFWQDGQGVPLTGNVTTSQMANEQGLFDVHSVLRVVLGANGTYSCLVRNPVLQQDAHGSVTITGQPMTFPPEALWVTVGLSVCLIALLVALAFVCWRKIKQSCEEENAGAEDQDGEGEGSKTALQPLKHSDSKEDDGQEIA

For experiment [1], the target named is His-tagged mouse B7-H3 (mouse) (UniProt Q8VE98). The experiment is described as follows: ELISA, coated His-tagged antigen.
In experiment [2] the target is B7-H3 on B7-H3-expressing CHO cells (Genescript) (UniProt Q5ZPR3). Put plainly: flow cytometry, B7-H3-expressing CHO cells, 10 ug/ml.

Results are given in words; binding and its absence hold for the method and conditions named. Some entries that bind do so weakly or less than the wild type.

B1: 40633p1.2.D1 (scFv, V domains shown)
VH: EVQLLESGGGLVQPGGSLRLSCAASGFTFDVYGMSWVRQAPGKGLEWVSAINWNGGSTYYADSVKGRFTISRDNSENTLYLQMNSLRAEDTAVYYCAKEKWKHFIYYGMDVWGQGTTVTVSS
VL: QSVLTQPASASGTPGQTVSISCSGSSSNIDSNTANWYQQLPGTAPKLLIYSNNQRPSGVPDRFSGSKSDTSASLAISGLQSEDEGDYYCSAWDDNLNGWLFGGGTKLTVL
With B1, the binding result in experiment [1] and in experiment [2] was “binds” each time.

B2: 40633p1.2.D11 (scFv, V domains shown)
VH: EVQLESGGGLVQPGGSLRLSCAASGFTVSYYGMSWVRQAPGKGLEWVSAIKQDGSEKYYADSVKGRFTISRDNSKNTLYLQMNSLRAEDTAVYYCARHWNDYSNAMNVWGQGTTVTVSS
VL: QSVLTQPPSASGTPGQRVTISCSGSTSNIAIDFVNWYQQLPGTAPKLLIYTIDQRPSGVPDRFSGSKSGTSASLAISGLQSEDEAVYYCASWDASLNGWVFGRGTKLTVL
B2: the binding result in experiment [1] and in experiment [2] was “binds” each time.

B3: 40633p1.2.G9 (scFv, V domains shown)
VH: EVQLLESGGGLLQPGGSLRLSCAASGFSFSSYGMHWVRQAPGKGLEWVAAINSDGSRIYYADSVEGRFTISRDNSKNTLYLQMNSLRAEDTAVYYCTKYYYHYAMDVWGQGTTVTVSS
VL: QSVLTQPPSASGTPGQRVTISCSGSRSDIGATTVNWYQQLPGTAPKLLIYQSHLRPSGVPDRFSGSKSGTSASLAISGLQSEDEADYYCASWDASLNTWVFGGGTKLTVL
As for B3, the binding result in experiment [1] and in experiment [2] was “binds” in each case.

B4: 40633p1.2.E11 (scFv, V domains shown)
VH: EVQLLESGGGLVQPGGSLRLSCAASGFSFSNYDMSWVRQAPGKGLEWVAGIRSGSRTYYADSVKGRFTISRDNSKNTLYLQMNSLRAEDTATYYCGRYFNMDVWGQGTTVTVSS
VL: QSVLTQPPSASGTPGQRVTISCSGSTFNIGTNLVHWYQQLPGTAPKLLIYLTDRRPPGVPDRFSGSKSGTSASLAISGLQSEDEANYYCATWDDSLNSFLFGGGTKLTVL
With B4, the binding entry in experiment [1] and in experiment [2] was “binds” each time.

B5: 40633p1.2.C3 (scFv, V domains shown)
VH: EVQLLESGGGLVQPGGSLRLSCAASGFTVSYYGMSWVRQAPGKGLEWVSAIKQDGSEKYYADSVKGRFTISRDNSKNTLYLQMNSLRAEDTAVYYCARHWNDYSNAMNVWEQGTTVTVSS
VL: QSVLTQPPSASGTPGQRVTISCSGSNSNVGGNYVSWYQQLPGTAPKLLIYRNSQRPSGVPDRFSGSKSGTSASLAISGLQSEDEAVYYCASWDASLNGWVFGGGTKLTVL
Regarding B5, the binding entry in experiment [1] and in experiment [2] was “binds” in each case.

B6: 40633p1.2.E1 (scFv, V domains shown)
VH: EVQLLESGRGLVQPGGSLRLSCAASGFTVSYYGMSWVRQAPGKGLEWVSVIKQDGSEEYYADSVKGRFTISRDNSKNTLYLQMNSLRAEDTAVYYCARHWNDYSNGMNVWGQGTTVTVSS
VL: QSVLTQPPSASGTPGQRVTISCSGSTSNVGDRYVYWYQQLPGTAPKLLIYLDDQRPSGVPDRFSGSKSGTSASLAISGLQSEDEADYYCASWDASLNGWVFGGGTKLTVL
With B6, the binding entry in experiment [1] and in experiment [2] was “binds” throughout.
